Measured data: PubChem BioAssay AID1159584 (Peter MacCallum Cancer Centre, 2016)
Test: 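Genes that CDH1-null MCF10A cells selectively depend on to survive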 (primary screen). System: human MCF10A breast epithelial cells, parental and CDH1-null. Reagents: siRNA against human genes. Measurement: 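ATP luminescence (CellTiter-Glo) viability per line relative to mean mock wells over all plates, and the ratio of CDH1-null to parental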. Direction: CDH1-null / parental viability ratio: higher = CDH1-null cells survive relatively better than parental; CDH1-null viability vs mock: higher = more viable CDH1-null cells.
This is an unselected part of about 18,000 reagents. Further read-outs or replicates are left out here. No sequences are given here. The record does not give: the amount of reagent, the time to read-out.

With knock-down of SRPX2 (sushi repeat containing protein X-linked 2) [SID152155776] the results were CDH1-null / parental viability ratio 0.81; CDH1-null viability vs mock (fraction of mock) = 0.83.
Silencing of TCEAL5 (transcription elongation factor A like 5) [SID152153156] resulted in: CDH1-null / parental viability ratio 0.79; CDH1-null viability vs mock (fraction of mock) = 0.6.
For SCN10A (sodium voltage-gated channel alpha subunit 10) [SID152155174] the deposit lists CDH1-null / parental viability ratio 1.29; CDH1-null viability vs mock (fraction of mock) = 0.98.
OR6M1 (olfactory receptor family 6 subfamily M member 1) [SID134329909] gave CDH1-null / parental viability ratio 1.29; CDH1-null viability vs mock (fraction of mock) = 0.98.
SPAG17 (sperm associated antigen 17) [SID134329454] gave CDH1-null / parental viability ratio 0.97; CDH1-null viability vs mock (fraction of mock) = 0.84.
Knock-down of MED8 (mediator complex subunit 8) [SID134313471] resulted in: CDH1-null / parental viability ratio 0.67; CDH1-null viability vs mock (fraction of mock) = 0.44.
Against RMDN2 (regulator of microtubule dynamics 2) [SID152147331] the deposit lists CDH1-null / parental viability ratio 1.2; CDH1-null viability vs mock (fraction of mock) = 0.9.
Depletion of ATP6V0E2 (ATPase H+ transporting V0 subunit e2) [SID152154039] came out at: CDH1-null / parental viability ratio 0.96; CDH1-null viability vs mock (fraction of mock) = 0.69.
NIP7 (nucleolar pre-rRNA processing protein NIP7) [SID152152512] showed CDH1-null / parental viability ratio 1.15; CDH1-null viability vs mock (fraction of mock) = 0.6.
Silencing of TTLL4 (tubulin tyrosine ligase like 4) [SID152154985] resulted in: CDH1-null / parental viability ratio 1.1; CDH1-null viability vs mock (fraction of mock) = 0.98.
Silencing of RIT2 (Ras like without CAAX 2) [SID152150068] gave: CDH1-null / parental viability ratio 1.1; CDH1-null viability vs mock (fraction of mock) = 0.99.
TMEM14A (transmembrane protein 14A) [SID152150141] gave CDH1-null / parental viability ratio 1.05; CDH1-null viability vs mock (fraction of mock) = 0.68.
Against OTUB1 (OTU deubiquitinase, ubiquitin aldehyde binding 1) [SID152153062], the entry reads CDH1-null / parental viability ratio 1.03; CDH1-null viability vs mock (fraction of mock) = 0.7.
EFNA3 (ephrin A3) [SID135623696] scored CDH1-null / parental viability ratio 0.82; CDH1-null viability vs mock (fraction of mock) = 0.68.
Against PRKCH (protein kinase C eta) [SID56478829] the deposit lists CDH1-null / parental viability ratio 0.74; CDH1-null viability vs mock (fraction of mock) = 0.55.
With knock-down of MXI1 (MAX interactor 1, dimerization protein) [SID135621868] the results were CDH1-null / parental viability ratio 1.17; CDH1-null viability vs mock (fraction of mock) = 0.96.
After knock-down of ROCK2 (Rho associated coiled-coil containing protein kinase 2) [SID135620850] the results were CDH1-null / parental viability ratio 0.93; CDH1-null viability vs mock (fraction of mock) = 0.9.
After knock-down of PNISR (PNN interacting serine and arginine rich protein) [SID135622865], the record shows CDH1-null / parental viability ratio 1.09; CDH1-null viability vs mock (fraction of mock) = 0.89.
Against SCN5A (sodium voltage-gated channel alpha subunit 5) [SID135621202] the deposit lists CDH1-null / parental viability ratio 1.22; CDH1-null viability vs mock (fraction of mock) = 1.09.
TEKT5 (tektin 5) [SID134319853] gave CDH1-null / parental viability ratio 0.8; CDH1-null viability vs mock (fraction of mock) = 0.7.
Against FGF19 (fibroblast growth factor 19) [SID135622583], the entry reads CDH1-null / parental viability ratio 1.08; CDH1-null viability vs mock (fraction of mock) = 0.95.
With knock-down of MYBL1 (MYB proto-oncogene like 1) [SID152151203], the record shows CDH1-null / parental viability ratio 1.13; CDH1-null viability vs mock (fraction of mock) = 0.85.

3 entries from above, reduced to “CDH1-null / parental viability ratio”:
OTUB1 (OTU deubiquitinase, ubiquitin aldehyde binding 1) [SID152153062]	1.03
EFNA3 (ephrin A3) [SID135623696]	0.82
PRKCH (protein kinase C eta) [SID56478829]	0.74

The results go on:
Silencing of SMS (spermine synthase) [SID152148218] gave: CDH1-null / parental viability ratio 0.86; CDH1-null viability vs mock (fraction of mock) = 0.72.
Against KLHL1 (kelch like family member 1) [SID135622015], the values are CDH1-null / parental viability ratio 0.59; CDH1-null viability vs mock (fraction of mock) = 0.24.
For PLCB3 (phospholipase C beta 3) [SID134313356], the entry reads CDH1-null / parental viability ratio 1.1; CDH1-null viability vs mock (fraction of mock) = 1.08.
SCAI (suppressor of cancer cell invasion) [SID135623445] showed CDH1-null / parental viability ratio 1.22; CDH1-null viability vs mock (fraction of mock) = 1.04.
After knock-down of RER1 (retention in endoplasmic reticulum sorting receptor 1) [SID152156393], the screen gave CDH1-null / parental viability ratio 1.16; CDH1-null viability vs mock (fraction of mock) = 0.64.
Knock-down of EVI5 (ecotropic viral integration site 5) [SID152152189] came out at: CDH1-null / parental viability ratio 0.85; CDH1-null viability vs mock (fraction of mock) = 0.74.
For CIMIP5 (ciliary microtubule inner protein 5) [SID134322536], the entry reads CDH1-null / parental viability ratio 0.88; CDH1-null viability vs mock (fraction of mock) = 0.6.
Knock-down of POPDC3 (popeye domain cAMP effector 3) [SID134321255] gave: CDH1-null / parental viability ratio 0.83; CDH1-null viability vs mock (fraction of mock) = 0.75.
Depletion of GLIS3 (GLIS family zinc finger 3) [SID152148919] resulted in: CDH1-null / parental viability ratio 1; CDH1-null viability vs mock (fraction of mock) = 0.57.
ETHE1 (ETHE1 persulfide dioxygenase) [SID134316772] gave CDH1-null / parental viability ratio 0.98; CDH1-null viability vs mock (fraction of mock) = 0.86.
For HIPK2 (homeodomain interacting protein kinase 2) [SID56478619], the values are CDH1-null / parental viability ratio 1.02; CDH1-null viability vs mock (fraction of mock) = 1.21.
ZNF507 (zinc finger protein 507) [SID152148288] scored CDH1-null / parental viability ratio 1; CDH1-null viability vs mock (fraction of mock) = 0.78.
Depletion of CAST (calpastatin) [SID152152111] gave: CDH1-null / parental viability ratio 1.22; CDH1-null viability vs mock (fraction of mock) = 0.9.
